The exact form of at least one protein or probe is not confirmed. Where cells or extracts were used, other partners may take part. At least one verdict rests on a figure or table, not on a statement of the authors.

By UniProt entry, the sequences of proteins in these tests, tags left out. Residues count along the entry.
UniProt Q9EP73, 19-290: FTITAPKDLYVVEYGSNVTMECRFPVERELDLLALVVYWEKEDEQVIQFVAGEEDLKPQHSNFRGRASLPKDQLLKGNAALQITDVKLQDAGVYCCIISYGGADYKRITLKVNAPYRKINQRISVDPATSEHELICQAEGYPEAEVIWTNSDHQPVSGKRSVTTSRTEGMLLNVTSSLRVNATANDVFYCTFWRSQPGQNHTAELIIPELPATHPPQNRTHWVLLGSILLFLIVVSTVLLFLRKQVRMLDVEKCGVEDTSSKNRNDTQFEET

The target of the data set is PD-L1 on B16F10 melanoma cells (endogenous) (mouse (B16F10 cells)) (UniProt Q9EP73). Put plainly: flow cytometry (cell binding). As to conditions: 170 nM aptamer, B16F10/splenocyte 1:10 mix, 5% BSA, 410% higher on B16F10 than splenocytes; 3' cholesterol (per Supplementary Table 1); Flow cytometry on cells: 170 nM aptPD-L1-FAM or 360 nM eCpG-FAM, 30 min with 5% BSA, PBS wash; pH and temperature not stated; DC assay conditions not given; protein on the cell surface; label: 5' FAM; single-stranded DNA. Background: A flow cytometer gives signals particle by particle.

As for “CCAACGGTCCATGTGTTCAGACGAGACGAACTTATGCGTATACATTGTCACTCCCCGCCATTTTTT [FAM-aptPD-L1-Chol]”, the binding result is “binds”.

Values taken from publication PMC11169524.
